Test results as given in PMC8644457.
For at least one entry, the source does not settle the construct or the ends of the probe. Results from cells or extracts need not show a direct contact. Tags and fusion partners may be left off the protein sequences shown.

Target: T1, MYB28 (AtMYB28) (Arabidopsis thaliana) (UniProt Q9SPG2)
T1 sequence (looked up, limits assumed): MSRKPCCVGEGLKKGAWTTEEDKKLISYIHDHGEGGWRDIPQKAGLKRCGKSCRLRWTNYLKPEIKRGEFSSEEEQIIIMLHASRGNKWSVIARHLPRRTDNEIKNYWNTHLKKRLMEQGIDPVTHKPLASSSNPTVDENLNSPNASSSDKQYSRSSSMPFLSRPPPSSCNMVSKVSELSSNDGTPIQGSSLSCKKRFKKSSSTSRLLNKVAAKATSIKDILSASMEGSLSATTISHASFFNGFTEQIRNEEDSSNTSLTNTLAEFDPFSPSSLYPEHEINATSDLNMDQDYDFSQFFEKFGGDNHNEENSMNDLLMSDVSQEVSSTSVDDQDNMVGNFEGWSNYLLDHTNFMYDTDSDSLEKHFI
Assay: EMSA
Settings: Odyssey Infrared EMSA kit (LI-COR), 6% DNA retardation gel, TBE, run at 4 °C; probes annealed in TE; protein extracted in 20 mM sodium phosphate pH 7.4, 0.5 M NaCl; protein in a lysate after overexpression; protein details: C-terminal GST (pDEST24); label: 5' DY-682 on forward strand

TGAGTTTCGAACACCTAATCGCGACAACAACCTTATAGCTTCTCTCTCTC (double strand) [SESA4_MYB labeled probe (At2S4 promoter)]
binding result: binds
